Source: paper PMC3793001
No constants are given. Whether binding was seen depends on the method and setting. In cells and extracts the contact can be indirect. Some entries that bind do so weakly or less than the wild type. Blank lines part the entries; values can stand above or below the substance they belong to.

Chains of the proteins cited; added tags and fusions are not shown. Residues count along the entry.
UniProt Q99720: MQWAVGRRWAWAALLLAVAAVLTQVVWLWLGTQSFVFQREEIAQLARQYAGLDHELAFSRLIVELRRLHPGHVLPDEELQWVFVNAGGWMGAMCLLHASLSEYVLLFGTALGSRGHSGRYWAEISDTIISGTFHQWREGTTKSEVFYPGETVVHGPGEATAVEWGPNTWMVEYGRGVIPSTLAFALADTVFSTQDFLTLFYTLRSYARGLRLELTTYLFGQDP
UniProt P15209, residues 32-821: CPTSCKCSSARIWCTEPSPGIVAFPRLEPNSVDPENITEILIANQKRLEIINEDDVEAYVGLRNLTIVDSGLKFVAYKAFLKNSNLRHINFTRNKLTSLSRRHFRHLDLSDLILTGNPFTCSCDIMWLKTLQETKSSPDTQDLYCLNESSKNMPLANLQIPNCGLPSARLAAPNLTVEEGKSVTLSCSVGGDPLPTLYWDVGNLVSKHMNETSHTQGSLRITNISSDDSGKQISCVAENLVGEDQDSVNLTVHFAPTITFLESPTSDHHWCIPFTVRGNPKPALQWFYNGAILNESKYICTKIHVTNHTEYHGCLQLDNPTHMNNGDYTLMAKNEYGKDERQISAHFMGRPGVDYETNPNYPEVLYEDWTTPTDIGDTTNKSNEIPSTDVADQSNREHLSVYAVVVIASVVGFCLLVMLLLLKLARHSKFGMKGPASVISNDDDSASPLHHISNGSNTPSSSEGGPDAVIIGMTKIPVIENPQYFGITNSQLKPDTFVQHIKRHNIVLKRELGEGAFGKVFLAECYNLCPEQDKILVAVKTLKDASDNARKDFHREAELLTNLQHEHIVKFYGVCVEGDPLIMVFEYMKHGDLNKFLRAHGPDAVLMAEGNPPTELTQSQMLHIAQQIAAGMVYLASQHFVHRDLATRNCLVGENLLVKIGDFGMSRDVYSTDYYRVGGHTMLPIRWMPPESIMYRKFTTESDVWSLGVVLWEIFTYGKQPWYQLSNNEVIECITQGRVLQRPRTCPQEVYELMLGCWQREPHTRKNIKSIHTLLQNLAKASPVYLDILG
UniProt O55242: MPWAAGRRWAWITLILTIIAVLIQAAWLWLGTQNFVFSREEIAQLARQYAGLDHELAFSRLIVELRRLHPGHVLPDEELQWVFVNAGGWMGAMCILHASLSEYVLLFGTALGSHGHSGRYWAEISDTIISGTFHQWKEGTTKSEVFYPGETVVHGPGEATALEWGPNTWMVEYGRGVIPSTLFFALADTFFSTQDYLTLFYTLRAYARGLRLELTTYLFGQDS

Key:
[1] = target: Myc-tagged full-length sigma-1 receptor (human) (UniProt Q99720); test: co-IP; HEK 293T cells transiently transfected with Sig-1R-Myc and/or HA-TrkB, with or without PRE-084 (10 µM, 1 h); lysis in 50 mM Tris-HCl pH 8.0, 150 mM NaCl, 1% NP-40, 1 mM EDTA, 10% glycerol; IP with anti-Myc or anti-HA antibody, 4°C; blots with anti-HA and anti-Myc
[2] = target: HA-tagged full-length TrkB (UniProt P15209); test: as above
[3] = target: Sigma-1 receptor (endogenous, cerebellar granule neurons) (mouse (endogenous in CGNs)) (UniProt O55242); test: co-IP; endogenous proteins in lysates of mouse CGNs, with or without PRE-084 (20 µM, 1 h); IP with anti-Sig-1R antibody, blots with anti-TrkB and anti-Sig-1R; lysis in 50 mM Tris-HCl pH 8.0, 150 mM NaCl, 1% NP-40, 1 mM EDTA, 10% glycerol, 4°C

binding [1]: binds
Substance: HA-tagged full-length TrkB (from UniProt P15209 32-821) (receptor)

binding [2]: binds
Substance: Myc-tagged full-length sigma-1 receptor (from UniProt Q99720 1-223)

binding [3]: binds
Substance: TrkB (endogenous, cerebellar granule neurons) (from UniProt P15209 32-821) (receptor)
